PubChem BioAssay AID1259269 | Sanger Institute – 2017

- Screen: 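Retest knock-downs that hurt colorectal cancer cells more once an anchor drug is added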 (follow-up of hits)
- Cells: HCC2998 human colorectal cancer cells
- Reagents: single siRNA against human genes
- Challenge: anchor drug BYL719 1 µM, cetuximab 5 µg/ml or trametinib 10 nM; DMSO vehicle as comparison arm
- Measured: 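Replicate-averaged survival relative to non-targeting control siRNA with DMSO or drug (BYL719 1 µM, cetuximab 5 µg/ml, trametinib 10 nM); per-drug synergy score, higher for stronger synthetic lethality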
- Scale: synergy score with BYL719 and synergy score with cetuximab and synergy score with trametinib: higher = stronger synthetic lethal effect with the drug; viability with DMSO: higher = more cells survive the knock-down
- Hit rule: 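a gene counts as active when any of the three drug arms gives an averaged synergy above 0.10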
- Calls: active = synergy with at least one drug; inactive = no synergy with any drug
In all, the deposit lists 160 reagents; below is a part drawn at random. 108 of them (68%) were called active. 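Viability cannot exceed 1; how synergy scores were computed is not described.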 Entries without a mark were called inactive. Reagents against one gene are numbered here. No viability above 1 is reported: the scale is capped. Not all columns of the deposit are shown. Not stated in the record: the amount of reagent, the time to read-out.

The opening 2 records, ahead of the listing:
| gene knocked down | siRNA no. | synergy score with BYL719 | synergy score with cetuximab | synergy score with trametinib | viability with DMSO (fraction of control) |
| --- | --- | --- | --- | --- | --- |
| NR2F2 (nuclear receptor subfamily 2 group F member 2) | 1 | -0.116 (active) | 0 | 0.192 | 1 |
| NR2F2 (nuclear receptor subfamily 2 group F member 2) | 2 | 0.00756 (active) | 0.00544 | 0.288 | 1 |

The listing, from the first entry:
| gene knocked down | siRNA no. | synergy score with BYL719 | synergy score with cetuximab | synergy score with trametinib | viability with DMSO (fraction of control) |
| --- | --- | --- | --- | --- | --- |
| NR2F2 (nuclear receptor subfamily 2 group F member 2) | 1 | -0.116 (active) | 0 | 0.192 | 1 |
| NR2F2 (nuclear receptor subfamily 2 group F member 2) | 2 | 0.00756 (active) | 0.00544 | 0.288 | 1 |
| NR2F2 (nuclear receptor subfamily 2 group F member 2) | 3 | -0.116 (active) | 0 | 0.192 | 1 |
| NR2F2 (nuclear receptor subfamily 2 group F member 2) | 4 | -0.0952 (active) | 0.0311 | 0.33 | 1 |
| KCNH8 (potassium voltage-gated channel subfamily H member 8) | 1 | -0.323 (active) | -0.185 | 0.167 | 0.712 |
| KCNH8 (potassium voltage-gated channel subfamily H member 8) | 2 | 0.0807 (active) | -0.0109 | 0.152 | 0.379 |
| KCNH8 (potassium voltage-gated channel subfamily H member 8) | 3 | -0.322 | -0.143 | 0.0705 | 0.767 |
| KCNH8 (potassium voltage-gated channel subfamily H member 8) | 4 | 0.0769 (active) | 0.0574 | 0.283 | 1 |
| ACVR1 (activin A receptor type 1) | 1 | -0.0191 (active) | 0 | 0.24 | 1 |
| ACVR1 (activin A receptor type 1) | 2 | -0.0837 (active) | -0.036 | 0.288 | 0.903 |
| ACVR1 (activin A receptor type 1) | 3 | -0.0344 (active) | 0 | 0.219 | 1 |
| ACVR1 (activin A receptor type 1) | 4 | 0.179 (active) | 0.157 | 0.301 | 0.987 |
| SYNCRIP (synaptotagmin binding cytoplasmic RNA interacting protein) | 1 | 0.277 (active) | 0.34 | 0.32 | 0.964 |
| SYNCRIP (synaptotagmin binding cytoplasmic RNA interacting protein) | 2 | -0.116 (active) | 0.0349 | 0.225 | 1 |
| SYNCRIP (synaptotagmin binding cytoplasmic RNA interacting protein) | 3 | 0.0359 (active) | 0.153 | 0.259 | 0.724 |
| SYNCRIP (synaptotagmin binding cytoplasmic RNA interacting protein) | 4 | -0.116 (active) | 0 | 0.306 | 1 |
| GRK5 (G protein-coupled receptor kinase 5) | 1 | 0.163 (active) | -0.0994 | 0.179 | 0.901 |
| GRK5 (G protein-coupled receptor kinase 5) | 2 | -0.289 | -0.473 | -0.0652 | 0.527 |
| GRK5 (G protein-coupled receptor kinase 5) | 3 | -0.0284 (active) | -0.185 | 0.284 | 0.815 |
| GRK5 (G protein-coupled receptor kinase 5) | 4 | -0.325 (active) | -0.0364 | 0.123 | 0.445 |
| IRAK1 (interleukin 1 receptor associated kinase 1) | 1 | -0.116 (active) | 0 | 0.513 | 1 |
| IRAK1 (interleukin 1 receptor associated kinase 1) | 2 | 0.0903 | 0.0495 | -0.0821 | 0.682 |
| IRAK1 (interleukin 1 receptor associated kinase 1) | 3 | 0.137 (active) | 0.104 | 0.351 | 1 |
| IRAK1 (interleukin 1 receptor associated kinase 1) | 4 | 0.17 (active) | -0.213 | -0.124 | 0.478 |
| CRIM1 (cysteine rich transmembrane BMP regulator 1) | 1 | 0.466 (active) | 0.252 | 0.22 | 1 |
| CRIM1 (cysteine rich transmembrane BMP regulator 1) | 2 | 0.34 (active) | 0.0299 | 0.183 | 0.653 |
| CRIM1 (cysteine rich transmembrane BMP regulator 1) | 3 | 0.18 (active) | -0.103 | 0.138 | 0.731 |
| CRIM1 (cysteine rich transmembrane BMP regulator 1) | 4 | 0.0799 (active) | 0.234 | 0.303 | 0.641 |
| MAPKAPK2 (MAPK activated protein kinase 2) | 1 | 0.129 (active) | 0.0458 | 0.138 | 1 |
| MAPKAPK2 (MAPK activated protein kinase 2) | 2 | 0.0502 (active) | 0.0294 | 0.31 | 1 |
| MAPKAPK2 (MAPK activated protein kinase 2) | 3 | -0.0649 | -0.0294 | 0.036 | 0.159 |
| MAPKAPK2 (MAPK activated protein kinase 2) | 4 | 0.24 (active) | 0.102 | 0.206 | 0.872 |
| HUNK (hormonally up-regulated Neu-associated kinase) | 1 | 0.0241 (active) | 0.119 | 0.0974 | 0.432 |
| HUNK (hormonally up-regulated Neu-associated kinase) | 2 | 0.1 (active) | -0.2 | 0.112 | 0.326 |
| HUNK (hormonally up-regulated Neu-associated kinase) | 3 | -0.0703 (active) | 0.212 | 0.0371 | 0.441 |
| HUNK (hormonally up-regulated Neu-associated kinase) | 4 | 0.0947 (active) | 0.344 | 0.278 | 0.792 |
| PLK1 (polo like kinase 1) | 1 | 0.000941 | 0.0399 | 0.00705 | 0.159 |
| PLK1 (polo like kinase 1) | 2 | 0.059 (active) | 0.136 | 0.0236 | 0.258 |
| PLK1 (polo like kinase 1) | 3 | -0.0663 | -0.0354 | -0.066 | 0.172 |
| PLK1 (polo like kinase 1) | 4 | -0.00568 | -0.0121 | -0.0258 | 0.113 |
| GTF2H1 (general transcription factor IIH subunit 1) | 1 | -0.218 (active) | 0.133 | 0.0289 | 0.885 |
| GTF2H1 (general transcription factor IIH subunit 1) | 2 | 0.0125 (active) | 0.142 | 0.0443 | 0.737 |
| GTF2H1 (general transcription factor IIH subunit 1) | 3 | -0.0703 | -0.238 | 0.0172 | 0.582 |
| GTF2H1 (general transcription factor IIH subunit 1) | 4 | -0.0205 | -0.0224 | 0.00296 | 0.357 |
| BMPR2 (bone morphogenetic protein receptor type 2) | 1 | 0.0954 (active) | 0 | 0.346 | 1 |
| BMPR2 (bone morphogenetic protein receptor type 2) | 2 | -0.0885 (active) | -0.129 | 0.216 | 0.633 |
| BMPR2 (bone morphogenetic protein receptor type 2) | 3 | 0.0977 (active) | 0.172 | 0.271 | 0.857 |
| BMPR2 (bone morphogenetic protein receptor type 2) | 4 | 0.195 (active) | 0 | 0.155 | 1 |
| MARK3 (microtubule affinity regulating kinase 3) | 1 | -0.321 (active) | 0.0662 | 0.106 | 0.768 |
| MARK3 (microtubule affinity regulating kinase 3) | 2 | -0.285 (active) | -0.0398 | 0.153 | 0.809 |
| MARK3 (microtubule affinity regulating kinase 3) | 3 | -0.206 (active) | 0.116 | 0.238 | 0.898 |
| MARK3 (microtubule affinity regulating kinase 3) | 4 | -0.424 (active) | -0.285 | 0.167 | 0.651 |
| PINK1 (PTEN induced kinase 1) | 1 | -0.116 | 0 | -0.0565 | 1 |
| PINK1 (PTEN induced kinase 1) | 2 | 0.0715 (active) | 0.0503 | 0.265 | 0.904 |
| PINK1 (PTEN induced kinase 1) | 3 | 0.105 (active) | 0.0416 | 0.291 | 0.99 |
| PINK1 (PTEN induced kinase 1) | 4 | -0.181 (active) | -0.139 | 0.254 | 0.845 |
| PRAG1 (PEAK1 related, kinase-activating pseudokinase 1) | 1 | 0.3 (active) | 0 | 0.294 | 1 |
| PRAG1 (PEAK1 related, kinase-activating pseudokinase 1) | 2 | 0.63 (active) | -0.000249 | 0.185 | 0.85 |
| PRAG1 (PEAK1 related, kinase-activating pseudokinase 1) | 3 | -0.183 | -0.0492 | -0.139 | 0.838 |
| PRAG1 (PEAK1 related, kinase-activating pseudokinase 1) | 4 | -0.148 | 0.00587 | -0.0578 | 0.965 |
| CDKN2D (cyclin dependent kinase inhibitor 2D) | 1 | -0.418 (active) | 0.00324 | 0.25 | 0.598 |
| CDKN2D (cyclin dependent kinase inhibitor 2D) | 2 | -0.222 (active) | 0.0178 | 0.25 | 0.673 |
| CDKN2D (cyclin dependent kinase inhibitor 2D) | 3 | -0.116 (active) | 0 | 0.232 | 1 |
| CDKN2D (cyclin dependent kinase inhibitor 2D) | 4 | 0.06 (active) | 0.289 | 0.187 | 0.572 |
